Experimental data: paper PMC4911381
No constants are given. Whether binding was seen depends on the method and setting. Binding seen in cells or lysates may run through a third protein. Some results given as binding are weak or reduced against the parent protein; the word gives no strength. Values belong to the molecule of their own block, whether it stands above or below them.

Amino acid sequences for entries named in this document (tags omitted).
UniProt P42227: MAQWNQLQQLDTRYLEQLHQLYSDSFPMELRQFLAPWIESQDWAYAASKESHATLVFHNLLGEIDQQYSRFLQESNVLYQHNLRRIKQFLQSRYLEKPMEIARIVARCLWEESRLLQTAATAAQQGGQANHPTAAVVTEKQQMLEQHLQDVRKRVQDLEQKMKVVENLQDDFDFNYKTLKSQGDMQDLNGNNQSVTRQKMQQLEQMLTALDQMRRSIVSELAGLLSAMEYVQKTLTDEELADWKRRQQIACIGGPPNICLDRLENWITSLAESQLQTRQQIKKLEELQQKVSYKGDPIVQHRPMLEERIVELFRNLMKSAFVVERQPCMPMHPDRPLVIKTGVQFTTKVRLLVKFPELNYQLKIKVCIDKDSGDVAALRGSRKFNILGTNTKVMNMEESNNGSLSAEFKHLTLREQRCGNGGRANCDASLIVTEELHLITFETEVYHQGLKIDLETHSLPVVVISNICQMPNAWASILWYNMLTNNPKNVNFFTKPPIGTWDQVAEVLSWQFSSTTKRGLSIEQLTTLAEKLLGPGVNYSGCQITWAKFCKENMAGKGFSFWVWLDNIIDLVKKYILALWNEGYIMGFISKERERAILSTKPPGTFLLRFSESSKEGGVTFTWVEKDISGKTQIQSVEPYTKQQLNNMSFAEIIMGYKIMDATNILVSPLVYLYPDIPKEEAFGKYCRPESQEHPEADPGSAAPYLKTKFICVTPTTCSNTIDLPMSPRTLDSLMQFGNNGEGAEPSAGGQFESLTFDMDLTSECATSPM

Key:
[1] = target: T1, stathmin (mouse (endogenous in sciatic nerve)) (UniProt P54227); assay: co-IP; anti-stathmin (rabbit) antibody and Protein A-agarose on sciatic nerve lysates of 34-day-old wild-type, Nefl-/-, pmn and Nefl-/-;pmn mice; IP buffer 50 mM Tris pH 7.4, 150 mM NaCl, 1 % Triton X-100, 2 mM EDTA; overnight at 4 °C; blots for stathmin, Stat3 and NFL; IgG control
T1 sequence: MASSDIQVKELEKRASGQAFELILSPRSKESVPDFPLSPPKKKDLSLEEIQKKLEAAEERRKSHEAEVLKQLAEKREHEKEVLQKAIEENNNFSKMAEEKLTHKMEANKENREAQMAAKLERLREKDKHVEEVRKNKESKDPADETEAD

[2] = target: T2, stathmin (mouse (endogenous in NSC34)) (UniProt P54227); assay: co-IP; anti-stathmin (rabbit) antibody and Protein A-agarose on NSC34 cell lysates, mock transfected (only lipofectamine) or transfected with the NFL overexpression vector; IP buffer 50 mM Tris pH 7.4, 150 mM NaCl, 1 % Triton X-100, 2 mM EDTA; overnight at 4 °C; blots for stathmin, Stat3 and NFL; IgG control
T2 sequence: T1 sequence

- binding [1]: binds
- binding [2]: binds
B1: neurofilament-light chain (protein, UniProt P08551 1-543)
chain: MSSFGYDPYFSTSYKRRYVETPRVHISSVRSGYSTARSAYSSYSAPVSSSLSVRRSYSSSSGSLMPSLENLDLSQVAAISNDLKSIRTQEKAQLQDLNDRFASFIERVHELEQQNKVLEAELLVLRQKHSEPSRFRALYEQEIRDLRLAAEDATNEKQALQGEREGLEETLRNLQARYEEEVLSREDAEGRLMEARKGADEAALARAELEKRIDSLMDEIAFLKKVHEEEIAELQAQIQYAQISVEMDVSSKPDLSAALKDIRAQYEKLAAKNMQNAEEWFKSRFTVLTESAAKNTDAVRAAKDEVSESRRLLKAKTLEIEACRGMNEALEKQLQELEDKQNADISAMQDTINKLENELRSTKSEMARYLKEYQDLLNVKMALDIEIAAYRKLLEGEETRLSFTSVGSITSGYSQSSQVFGRSAYSGLQSSSYLMSARSFPAYYTSHVQEEQTEVEETIEATKAEEAKDEPPSEGEAEEEEKEKEEGEEEEGAEEEEAAKDESEDTKEEEEGGEGEEEDTKESEEEEKKEESAGEEQVAKKKD

- binding [2]: binds
B2: NFL (overexpressed) (protein, UniProt P08551 1-543)
chain: B1 chain

Second part, the molecule before the results:

Molecule: signal transducer and activator of transcription-3 (from UniProt P42227 1-770)
- binding [1]: binds

Molecule: Stat3 (from UniProt P42227 1-770)
- binding [2]: binds
